Assay results from US20160367708A1, “COMPOSITIONS AND METHODS OF TREATING CANCER” (THE JOHNS HOPKINS UNIVERSITY, priority 2013, published 2016).

System: mouse CRL2836 or human HeLa cells
Test: Assessment of ^32P incorporated into DNA (DNase I digestion, gel autoradiography)
Format: cell-based
Details: digestion with DNase I

## O=[32P](O)(O)O [[^32P]PO4, ^32P monophosphate]
  incorporation of ^32P into cellular DNA: directly incorporated into cellular DNA
